# No constants are given. Whether binding was seen depends on the method and setting. Binding seen in cells or lysates may run through a third protein. Binding can be weak; no strength is given.
# Chains of the proteins cited; added tags and fusions are not shown. Lines headed by an entry give the natural chain unless they say otherwise; changes in a name come on top. A line that says so, or that is headed by a name, gives the form on record, which may keep a tag or linker.
# full-length YAP (YAP2) of mouse cerebellum (mouse (endogenous in cerebellum)) (P46938, form named): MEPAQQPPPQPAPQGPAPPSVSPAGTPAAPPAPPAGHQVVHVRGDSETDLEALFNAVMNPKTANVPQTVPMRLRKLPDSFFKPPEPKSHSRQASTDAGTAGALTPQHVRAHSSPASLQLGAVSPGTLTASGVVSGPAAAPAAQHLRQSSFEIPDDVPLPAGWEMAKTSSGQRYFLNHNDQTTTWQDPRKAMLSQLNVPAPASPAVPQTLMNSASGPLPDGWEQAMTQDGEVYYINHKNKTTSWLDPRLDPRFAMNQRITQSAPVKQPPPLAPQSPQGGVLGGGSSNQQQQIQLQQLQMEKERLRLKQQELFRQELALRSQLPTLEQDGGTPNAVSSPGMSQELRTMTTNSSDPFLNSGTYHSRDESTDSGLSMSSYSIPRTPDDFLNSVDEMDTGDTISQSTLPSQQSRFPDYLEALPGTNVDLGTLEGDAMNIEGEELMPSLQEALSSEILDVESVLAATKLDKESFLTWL
# B1: normal Atxn1 of mouse cerebellum (protein, UniProt P54254 1-791)
# chain: MKSNQERSNECLPPKKREIPATSRPSEEKATALPSDNHCVEGVAWLPSTPGIRGHGGGRHGSAGTSGEHGLQGMGLHKALSAGLDYSPPSAPRSVPTANTLPTVYPPPQSGTPVSPVQYAHLSHTFQFIGSSQYSGPYAGFIPSQLISPSGNPVTSAVASAAGATTPSQRSQLEAYSTLLANMGSLSQAPGHKVEPPPQQHLSRAAGLVNPGSPPPPTQQNQYIHISSSPQSSGRATSPPPIPVHLHPHQTMIPHTLTLGPSSQVVVQYSDAGGHFVPRESTKKAESSRLQQAMQAKEVLNGEMEKSRRYGASSSVELSLGKASSKSVPHPYESRHVVVHPSPADYSSRDTSGVRGSVMVLPNSSTPSADLEAQQTTHREASPSTLNDKSGLHLGKPGHRSYALSPHTVIQTTHSASEPLPVGLPATAFYAGTQPPVIGYLSGQQQAITYAGGLPQHLVIPGNQPLLIPVGSPDMDTPGAASAIVTSSPQFAAVPHTFVTTALPKSENFNPEALVTQAAYPAMVQAQIHLPVVQSVASPTTASPTLPPYFMKGSIIQLANGELKKVEDLKTEDFIQSAEISNDLKIDSSTVERIEESHSPGVAVIQFAVGEHRAQVSVEVLVEYPFFVFGQGWSSCCPERTSQLFDLPCSKLSVGDVCISLTLKNLKNGSVKKGQPVDPASVLLKQAKTDSLAGSRHRYAEQENGINQGSAQVLSENGELKFPEKIGLPAAPFLSKIEPSKPTATRKRRWSAPETRKLEKSEDEPPLTLPKPSLIPQEVKICIEGRSNVGK
# Columns and labels:
# [1] = target: full-length YAP (YAP2) of mouse cerebellum (mouse (endogenous in cerebellum)) (UniProt P46938); test: co-IP; cerebellar tissue of C57BL/6, Atxn1-KI (No Dox) and Group I mice at P7 and P21; reciprocal precipitation of YAP and RORα
# [2] = target: YAPdeltaC of mouse cerebellum (mouse (endogenous in cerebellum)); test: as above
Molecule,binding [1],binding [2]
mutant Atxn1 (Atxn1-154Q) of Atxn1-KI (Sca1 154Q/2Q) mice (from UniProt P54254),binds,
B1,,binds
